We go through two molecules from PMC11494886, “Discovery and design of molecular glue enhancers of CDK12–DDB1 interactions for targeted degradation of cyclin K” (RSC Chemical Biology, 2024).

Chains of the proteins cited; added tags and fusions are not shown. Residues count along the entry.
Cdk12 kinase domain (residues 714–1063) (Q9NYV4, residues 714-1063): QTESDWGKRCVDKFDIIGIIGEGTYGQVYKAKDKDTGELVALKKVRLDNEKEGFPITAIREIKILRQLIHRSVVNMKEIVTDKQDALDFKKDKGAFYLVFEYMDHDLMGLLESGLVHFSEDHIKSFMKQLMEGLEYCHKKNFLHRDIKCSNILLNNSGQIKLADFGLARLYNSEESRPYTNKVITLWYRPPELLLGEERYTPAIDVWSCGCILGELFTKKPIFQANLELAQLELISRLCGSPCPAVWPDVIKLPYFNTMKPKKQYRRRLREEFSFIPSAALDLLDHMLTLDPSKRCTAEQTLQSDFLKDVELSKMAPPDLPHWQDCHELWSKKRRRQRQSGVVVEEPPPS
GST-CDK12 kinase domain (a.a. 715–1050) (Q9NYV4, residues 715-1050): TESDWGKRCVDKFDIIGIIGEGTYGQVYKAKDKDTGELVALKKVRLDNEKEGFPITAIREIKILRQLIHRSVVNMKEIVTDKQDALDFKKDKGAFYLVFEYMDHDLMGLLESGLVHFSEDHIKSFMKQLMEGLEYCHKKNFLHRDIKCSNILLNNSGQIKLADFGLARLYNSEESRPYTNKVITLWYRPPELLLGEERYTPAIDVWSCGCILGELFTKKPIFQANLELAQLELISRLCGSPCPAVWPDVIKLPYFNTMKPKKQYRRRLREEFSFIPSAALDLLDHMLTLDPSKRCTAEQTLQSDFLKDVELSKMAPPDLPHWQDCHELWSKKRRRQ

No constants are given. Whether binding was seen depends on the method and setting. Some results given as binding are weak or reduced against the parent protein; the word gives no strength.

Experiment [1] addresses GST-CDK12 kinase domain (a.a. 715–1050) (human) (UniProt Q9NYV4). The experiment in a line: co-purification (glutathione affinity, then SEC); GST-CDK12 and cyclin K co-expressed in SF9 with CAK1; Glutathione Sepharose 4B, TEV digestion, Superdex 75 26/60 in 50 mM HEPES pH 7.4, 200 mM NaCl, 2.5% glycerol, 0.25 mM TCEP.
Experiment [2] addresses Cdk12 kinase domain (residues 714–1063) (human) (UniProt Q9NYV4). As to the kind of experiment: crystal structure; 80 μM Cdk12/CycK, 70 μM DDB1ΔB, 5 mM SR-4835; hanging drop, 10 °C, 1 M potassium citrate, 15% glycerol; 3.9 Å, space group P3(1)21; both purified.

As to “Cyclin K cyclin box (a.a. 11–267), untagged (from UniProt O75909 11-267) (domain or fragment)”, the binding entry in experiment [1] is recorded as “binds”.

B1: Cyclin K cyclin box domains (residues 1–267) (domain or fragment, UniProt O75909 1-267)
chain: MKENKENSSPSVTSANLDHTKPCWYWDKKDLAHTPSQLEGLDPATEARYRREGARFIFDVGTRLGLHYDTLATGIIYFHRFYMFHSFKQFPRYVTGACCLFLAGKVEETPKKCKDIIKTARSLLNDVQFGQFGDDPKEEVMVLERILLQTIKFDLQVEHPYQFLLKYAKQLKGDKNKIQKLVQMAWTFVNDSLCTTLSLQWEPEIIAVAVMYLAGRLCKFEIQEWTSKPMYRRWWEQFVQDVPVDVLEDICHQILDLYSQGKQQMPH
Take B1: in experiment [2], the binding result is listed as “binds”.
